PubChem BioAssay AID602196 – INSERM – 2012
Shown is a random part of about 23,000 reagents. 455 of all reagents (2%) were called active. 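Active includes both protection and sensitisation; some change values fall well beyond the stated -50 to +50 range.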 Unmarked entries are inactive. Further read-outs or replicates are left out here. No sequences are given here. Not stated in the record: the amount of reagent.

Screen: 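Genes whose knock-down alters cisplatin killing of lung cancer cells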
Cell system: human A549 lung cancer cells
Knock-down reagent: siRNA pair against human genes
Time to read-out: 48 h transfection before cisplatin; time from cisplatin to read-out not stated
Challenge: cisplatin at a dose killing half of control-siRNA cells; exact dose and duration not given
Measurement: 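Shift in cisplatin death relative to control siRNA, from -50 (all cells die) to +50 (no cells die); siRNAs harmful on their own scored 0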
Direction: two-siRNA summed score (-2 to +2): higher = both siRNAs protect from cisplatin killing; -2 means both sensitise; mean protection from cisplatin (shift in death): higher = protection from cisplatin killing
Active means: 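Each siRNA scores 0 if harmful alone by LDH or WST-1, otherwise +1 if it reduces and -1 if it increases cisplatin killing; a gene is active when both siRNAs agree (sum +2 or -2)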
Meaning of the calls: active = both siRNAs shift cisplatin killing the same way; inactive = no consistent shift, or siRNA harmful alone

Target gene	PubChem SID	two-siRNA summed score (-2 to +2)	mean protection from cisplatin (shift in death) (%)
LOC441789	SID131515313	0	9
UVSSA	SID131503710	0	-8.3
IDH1	SID131501596	-1	-8.7
LOC401441	SID131512357	0	5.4
PHLPP2	SID131510071	0	2.8
LOC390855	SID131511501	0	4.4
PCM1	SID131506303	0	-1.7
TTN	SID131501138	-1	-12.1
ATF7	SID131502560	-1	-0.9
NCAN	SID131504308	0	-5.8
LOC147151	SID131509268	0	2
ZNF583	SID131506581	0	-1.3
LOC400961	SID131512263	0	5.3
SFI1	SID131518056	0	16.2
ASNSD1	SID131503031	0	-15.6
ITK	SID131523059	2 (active)	18.1
DDX31	SID131520301	1	9.4
STN1	SID131505317	0	-3.4
MPZL3	SID131516172	0	10.4
LOC400121	SID131522164	1	16.6
LOC126167	SID131505711	0	-2.7
TRIM64	SID131508446	0	1.1
MAPK14	SID131502724	-1	3.9
UBAC1	SID131500309	-2 (active)	-28
LOC441426	SID131522528	1	19.7
PRDM8	SID131503383	0	-10.5
CEL	SID131511444	0	4.4
NECTIN2	SID131512664	0	5.7
LOC389435	SID131518862	0	33
LOC442619	SID131514075	0	7.3
FGF18	SID131512313	0	5.3
ANKRD62	SID131520395	1	9.8
LOC401062	SID131510614	0	3.4
STXBP3	SID131521350	1	13.1
GH2	SID131505545	0	-3
FCGR1A	SID131506742	0	-1.1
PON2	SID131500451	-1	-28.4
FBXO44	SID131511201	0	4.1
LCN9	SID131518392	0	19
C9orf43	SID131509178	0	1.9
UQCC4	SID131522864	1	27.6
PRDX1	SID131518170	0	17
OR4C45	SID131514245	0	7.6
TBXA2R	SID131511051	0	3.9
KIR2DS3	SID131512869	0	5.9
LOC441553	SID131519303	1	4.6
CPPED1	SID131519742	1	7.2
KCNMA1	SID131503884	0	-7.3
MYOZ1	SID131504407	0	-5.5
LOC440454	SID131522196	1	16.8
ABCA7	SID131502676	-1	1.9
LOC390733	SID131520252	1	9.2
MTNAP1	SID131509707	0	2.4
LOC401165	SID131511032	0	3.9
GIMAP8	SID131520982	1	11.7
STIMATE	SID131515667	0	9.5
CENPI	SID131517760	0	14.7

Records listed so far with an active call:
Target gene	PubChem SID	two-siRNA summed score (-2 to +2)	mean protection from cisplatin (shift in death) (%)
ITK	SID131523059	2 (active)	18.1
UBAC1	SID131500309	-2 (active)	-28
